Data taken from patent publication US12577138B2, “Using Daphnia for bioremediation” (priority 2019, dated 2026).

System: Daphnia magna
Test: Removal of pharmaceuticals and pesticides from spiked borehole water by Daphnia magna, daily UPLC/MS over five days

Question: What does the source list for `O=C(O)Cc1ccccc1Nc1c(Cl)cccc1Cl` [Diclofenac]?
Answer: reduction in the concentration (Daphnia in the water sample for 3 days): 84%; concentration in water after exposure to Daphnia magna (after 5 days (4 days of the Daphnia being in the water)): 0 µg/L

Question: With `CCNc1nc(Cl)nc(NC(C)C)n1` [atrazine] as the compound, how does the “concentration as % of the initial concentration” value (day 5 / after 5 days) read?
Answer: The value was 36%.

Question: How did the “concentration as % of the starting concentration” value (day 3, single genotype, borehole water) turn out when `CC(=O)Nc1ccc(O)cc1` [paracetamol] was run?
Answer: Its value is 27%.

Question: And the “concentration in water after exposure to Daphnia magna” value (day 3, starting concentration 4000 μg/L, single genotype, borehole water)?
Answer: The value was 2900 µg/L.
